Taken from: PubChem BioAssay AID504808 (Drosophila RNAi Screening Center, 2011)

- Screen: 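Chromatin factors that keep E2F targets switched off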 (primary screen)
- Cell system: Drosophila S2 cells
- Reagent: long dsRNA against Drosophila genes
- Detection: 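Dual luciferase plate measurements; E2F-specific signal taken as firefly over Renilla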
- Reading the numbers: E2F firefly: higher = more E2F reporter activity; Renilla normaliser: higher = more normaliser reporter signal
- Active means: 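a knock-down counted as active when the firefly/Renilla E2F signal rose above 50%, a threshold chosen arbitrarily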
The deposit covers about 21,000 reagents; shown is an unselected part of those that have a named target and a result. Of all reagents, 18 (0.084%) were called active. 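Raw counts without plate normalisation, one of two replicates; the ratio scores behind the calls were not deposited.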 Unmarked entries are inactive. The numbers tell different reagents against one gene apart. Names joined by + are all predicted targets of the reagent. Not stated in the record: the amount of reagent, the time to read-out.

no.	gene	reagent	E2F firefly, rep 1	Renilla normaliser, rep 1
1	CG12065	1	8020	844
2	CG12065	2	1.04e5	5418
3	CG31809	1	1.41e5	5637
4	tra	1	1.66e5	8955
5	Schip1	1	1.48e5	4917
6	CG2909	1	1.12e5	5649
7	Spf30	1	1.22e5	7014
8	Tasp1	1	69328	3127
9	CG15322	1	1.10e5	4383
10	CG8272	1	3293	331
11	CG9919	1	1.24e5	5506
12	Rpn3	1	70561	4793
13	ifc	1	86834	3871
14	CG5151	1	99241	7106
15	CG10252	1	82238	3763
16	ca	1	2000	968
17	ca	2	1.21e5	6496
18	ca	3	1.32e5	6892
19	CG46339	1	1726	900
20	Pbgs	1	1.27e5	6829
21	Cyp6t1	1	1.53e5	6759
22	Bap55	1	90235	186
23	Sk2	1	85865	3106
24	CG31058 (retired record)	1	90715	3628
25	fig	1	1.26e5	6241
26	Inx3	1	1952	900
27	ckn	1	3116	209
28	Cpr	1	91545	3501
29	Wdr81	1	81195	3427
30	pot	1	8374	852
31	Aldh7A1	1	82147	4171
32	CG9967	1	70477	3046
33	Eb1	1	93691	4006
34	Ir100a	1	89929	4928
35	CG7611	1	85901	3941
36	fne	1	82243	4996
37	NimB5	1	1.03e5	4789
38	Twdlbeta	1	91457	3753
39	CG15422	1	1.53e5	4802
40	mRpS21	1	93027	2556
41	CG9044	1	77505	3468
42	CG14195	1	1.27e5	281
43	obst-F	1	1.13e5	5428
44	CG30376	1	1.33e5	5577
45	ec	1	81720	2971
46	ec	2	88516	3283
47	ec	3	99668	5096
48	CG30281	1	83839	3167
49	Pfas	1	87064	3874
50	Naam	1	1.22e5	6753
51	ome	1	1.43e5	4291
52	ome	2	1.48e5	7435
53	ome	3	1.48e5	6342
54	Alp10	1	95728	3650
55	CG6310	1	85772	4621
56	Aldh-III	1	88845	118
57	CG9920	1	1.08e5	5620
58	TwdlZ	1	84010	2708
59	Poc1	1	81201	3928
60	scf	1	93888	4562
61	Ncoa6	1	71582	4033
62	fliI	1	54506	3339
63	Cpsf160	1	2940	210
64	CG42808 + CG42807	1	2981	189
65	CG42808 + CG42807	2	1.04e5	4106
66	PolQ	1	1.24e5	5349
67	CG15747	1	6666	804
68	CkIIalpha-i1	1	1.87e5	7380
69	CG4250	1	1.17e5	4748
70	rho-6	1	1.00e5	4285
71	unk	1	66936	4366
72	Top3alpha	1	98390	3911
73	Sox100B	1	93556	7568
74	Sox100B	2	1.19e5	6646
75	beta-Man	1	69543	4072
76	beta-Man	2	1.50e5	7183
77	nenya	1	77517	2788
78	mTerf5	1	67591	3397
79	CG31407	1	80111	3737
80	CG33120	1	91132	3951
81	Rae1	1	70473	3292
82	Pex3	1	94471	3367
83	H15	1	1.67e5	5574
84	CG6724	1	1.36e5	5380

8 neighbouring entries already listed, for reference:
no.	gene	reagent	E2F firefly, rep 1	Renilla normaliser, rep 1
15	CG10252	1	82238	3763
16	ca	1	2000	968
17	ca	2	1.21e5	6496
18	ca	3	1.32e5	6892
19	CG46339	1	1726	900
20	Pbgs	1	1.27e5	6829
21	Cyp6t1	1	1.53e5	6759
22	Bap55	1	90235	186
